Some of the results follow. The exact form of the protein is not confirmed.
What follows are sequences tested against T1, ELF2 (UniProt Q15723) (assay: DAPPL (digital affinity profiling via proximity ligation, sequencing)). Conditions: 10 mM Tris-HCl pH 7.5, 50 mM NaCl, 1 mM DTT, 4% glycerol, room temperature, 30 min; GST-TFs on glutathione beads, 16-mer random dsDNA library, 0.1% …; high values mean tight binding; double strand, one strand shown; scale: fold enrichment (6-mer frequency, TF over GST control).
T1 sequence: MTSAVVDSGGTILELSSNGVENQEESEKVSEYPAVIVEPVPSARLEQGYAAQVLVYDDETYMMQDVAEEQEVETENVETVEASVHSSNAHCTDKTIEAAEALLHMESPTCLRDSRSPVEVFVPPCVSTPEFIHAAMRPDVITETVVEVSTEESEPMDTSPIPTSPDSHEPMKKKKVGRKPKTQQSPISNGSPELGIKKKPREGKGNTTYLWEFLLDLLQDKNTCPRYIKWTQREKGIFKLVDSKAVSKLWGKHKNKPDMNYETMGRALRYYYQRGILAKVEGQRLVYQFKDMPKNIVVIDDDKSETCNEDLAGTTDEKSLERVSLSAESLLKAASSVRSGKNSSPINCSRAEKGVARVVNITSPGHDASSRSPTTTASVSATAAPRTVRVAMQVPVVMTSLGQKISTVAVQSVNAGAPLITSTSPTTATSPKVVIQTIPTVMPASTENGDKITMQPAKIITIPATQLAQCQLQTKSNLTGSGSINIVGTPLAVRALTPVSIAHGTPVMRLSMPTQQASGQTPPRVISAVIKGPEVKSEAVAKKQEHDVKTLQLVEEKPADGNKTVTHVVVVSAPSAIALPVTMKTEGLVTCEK

Sequence	binding signal
GCCTTG	1.18
TGTGCT	1.13
CTCCTT	1.8
GGTTTC	1.62
CCCAAT	1.24
ATGAGC	1.16
GAATAA	1.14
TACCCG	1.63
AAAACT	1.2
ATTTCA	1.3
AATGGG	1.18
GCCTCG	1.26
ATGTTC	1.23
TACCCT	1.27
ATTCTA	1.24
ATTCGT	1.15
ATTCTG	1.2
GGTATA	1.08
ATTGCG	1.21
AGGTAT	1.02

Sequence	binding signal
ATAAAC	1.14
TGGTTA	1.01
GAACTC	1.35
TGGTCT	1.43
TCGACT	1.39
TCCTAC	1.53
GACCTC	1.3
ATTCCC	1.43
CTCGTA	1.28
TTGTCT	1.2
GTAACT	1.23
AATTTA	1.27
TTTATA	1.33
CTTCCT	4.81
AACGAA	1.13
GTCCTA	1.14
TCGCCT	1.21
CGCTCC	1.27
TCTCTG	1.4

Already shown: entries from further up.
Sequence	binding signal
TCGCCT	1.21
CGCTCC	1.27
